We go through one molecule from article PMC7312386, “The Effect of Substituted Benzene-Sulfonamides and Clinically Licensed Drugs on the Catalytic Activity of CynT2, a Carbonic Anhydrase Crucial for Escherichia coli Life Cycle” (International Journal of Molecular Sciences, 2020).

By UniProt entry, the sequences of proteins in these tests, tags left out. Where a name states a change or a piece, a line headed by the entry shows the natural chain unless it says otherwise.
UniProt P61517: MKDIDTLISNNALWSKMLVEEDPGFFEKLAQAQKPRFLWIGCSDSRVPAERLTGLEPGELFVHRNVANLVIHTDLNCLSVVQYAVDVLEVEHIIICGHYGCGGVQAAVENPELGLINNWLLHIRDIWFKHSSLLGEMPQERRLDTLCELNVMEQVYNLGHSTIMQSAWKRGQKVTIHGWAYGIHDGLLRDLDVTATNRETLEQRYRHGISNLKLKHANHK

For this assay, the target named is T1, CynT2 (Escherichia coli, UniProt P61517).
T1 construct: gene can; oligomer not determined (dimer or tetramer stated for bacterial beta-CAs in general)
As to the kind of experiment: stopped-flow CO2 hydrase assay, phenol red. Type of assay: biochemical.

The structures appear in SMILES notation.

Regarding `CCN[C@H]1C[C@H](C)S(=O)(=O)c2sc(S(N)(=O)=O)cc21` [DZA, Dorzolamide], the Ki (commonly a measure of affinity in units of concentration, obtained from inhibition or displacement) is 629 nM.
